# This is one part of the list.
# B1: Protectin (Homo sapiens), P13987 (protein)
# chain: MGIQGGSVLFGLLLVLAVFCHSGHSLQCYNCPNPTADCKTAVNCSSDFDACLITKAGLQVYNKCWKFEHCNFNDVTTRLRENELTYYCCKKDLCNFNEQLENGGTSLSEKTVLLLVTPFLAAAWSLHP
# Columns and labels:
# Assay in all cases: glycan array binding signal (z-score within array); higher = stronger binding
# Settings in all cases: glycan notation: IUPAC condensed, linker removed
# Fuc(a1-2)Gal = biological target: Fuc(a1-2)Gal
# In short: (§1)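 The binding signal is a Z-score computed within each array. Data were drawn from 3228 arrays in the Consortium for Functional Glycomics database, restricted to those with a known protein sequence. Scores were averaged over arrays of the same protein sequence at different concentrations or buffers, and over linkers, and negative values can be taken as non-binding.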
# Fuc(a1-2)Gal(b1-3)GalNAc = biological target: Fuc(a1-2)Gal(b1-3)GalNAc
# In short: as §1
# [1] = biological target: Fuc(a1-2)Gal(b1-3)GalNAc(a1-3)[Fuc(a1-2)]Gal(b1-4)Glc
# In short: as §1
# [2] = biological target: Fuc(a1-2)Gal(b1-3)GalNAc(a1-3)[Fuc(a1-2)]Gal(b1-4)GlcNAc
# In short: as §1
# [3] = biological target: Fuc(a1-2)Gal(b1-3)GalNAc(b1-3)Gal
# In short: as §1
# [4] = biological target: Fuc(a1-2)Gal(b1-3)GalNAc(b1-3)Gal(a1-4)Gal(b1-4)Glc
# In short: as §1
# [5] = biological target: Fuc(a1-2)Gal(b1-3)GalNAc(b1-4)[Neu5Ac(a2-3)]Gal(b1-4)Glc
# In short: as §1
# Fuc(a1-2)Gal(b1-3)GlcNAc = biological target: Fuc(a1-2)Gal(b1-3)GlcNAc
# In short: as §1
# [6] = biological target: Fuc(a1-2)Gal(b1-3)GlcNAc(b1-2)Man(a1-3)[Fuc(a1-2)Gal(b1-3)GlcNAc(b1-2)Man(a1-6)]Man(b1-4)GlcNAc(b1-4)GlcNAc
# In short: as §1
# [7] = biological target: Fuc(a1-2)Gal(b1-3)GlcNAc(b1-2)Man(a1-3)[Fuc(a1-2)Gal(b1-3)GlcNAc(b1-2)Man(a1-6)]Man(b1-4)GlcNAc(b1-4)[Fuc(a1-6)]GlcNAc
# In short: as §1
# [8] = biological target: Fuc(a1-2)Gal(b1-3)GlcNAc(b1-3)Gal(b1-4)Glc
# In short: as §1
# [9] = biological target: Fuc(a1-2)Gal(b1-3)GlcNAc(b1-3)GalNAc
# In short: as §1
# [10] = biological target: Fuc(a1-2)Gal(b1-3)GlcNAc(b1-3)[Fuc(a1-3)[Gal(b1-4)]GlcNAc(b1-6)]Gal(b1-4)Glc
# In short: as §1
# [11] = biological target: Fuc(a1-2)Gal(b1-3)GlcNAc(b1-3)[Gal(b1-4)GlcNAc(b1-6)]Gal(b1-4)Glc
# In short: as §1
# [12] = biological target: Fuc(a1-2)Gal(b1-3)GlcNAc(b1-3)[Neu5Ac(a2-6)Gal(b1-4)GlcNAc(b1-6)]Gal(b1-4)Glc
# In short: as §1
# [13] = biological target: Fuc(a1-2)Gal(b1-3)[Fuc(a1-4)]GlcNAc
# In short: as §1
# [14] = biological target: Fuc(a1-2)Gal(b1-3)[Fuc(a1-4)]GlcNAc(b1-2)Man(a1-3)[Fuc(a1-2)Gal(b1-3)[Fuc(a1-4)]GlcNAc(b1-2)Man(a1-6)]Man(b1-4)GlcNAc(b1-4)GlcNAc
# In short: as §1
# [15] = biological target: Fuc(a1-2)Gal(b1-3)[Fuc(a1-4)]GlcNAc(b1-3)[Fuc(a1-3)[Gal(b1-4)]GlcNAc(b1-6)]Gal(b1-4)Glc
# In short: as §1
# [16] = biological target: Fuc(a1-2)Gal(b1-3)[Fuc(a1-4)]GlcNAc(b1-3)[Gal(b1-4)GlcNAc(b1-6)]Gal(b1-4)Glc
# In short: as §1
# Fuc(a1-2)Gal(b1-4)Glc = biological target: Fuc(a1-2)Gal(b1-4)Glc
# In short: as §1
# Fuc(a1-2)Gal(b1-4)Glc6S = biological target: Fuc(a1-2)Gal(b1-4)Glc6S
# In short: as §1
# Fuc(a1-2)Gal(b1-4)GlcNAc = biological target: Fuc(a1-2)Gal(b1-4)GlcNAc
# In short: as §1
# [17] = biological target: Fuc(a1-2)Gal(b1-4)GlcNAc(b1-2)Man(a1-3)[Fuc(a1-2)Gal(b1-4)GlcNAc(b1-2)Man(a1-6)]Man(b1-4)GlcNAc(b1-4)GlcNAc
# In short: as §1
# [18] = biological target: Fuc(a1-2)Gal(b1-4)GlcNAc(b1-2)Man(a1-3)[Fuc(a1-2)Gal(b1-4)GlcNAc(b1-2)Man(a1-6)]Man(b1-4)GlcNAc(b1-4)[Fuc(a1-6)]GlcNAc
# In short: as §1
# [19] = biological target: Fuc(a1-2)Gal(b1-4)GlcNAc(b1-2)[Fuc(a1-2)Gal(b1-4)GlcNAc(b1-4)]Man(a1-3)[Fuc(a1-2)Gal(b1-4)GlcNAc(b1-2)Man(a1-6)]Man(b1-4)GlcNAc(b1-4)GlcNAc
# In short: as §1
# [20] = biological target: Fuc(a1-2)Gal(b1-4)GlcNAc(b1-3)Gal(b1-4)GlcNAc
# In short: as §1
# [21] = biological target: Fuc(a1-2)Gal(b1-4)GlcNAc(b1-3)Gal(b1-4)GlcNAc(b1-3)Gal(b1-4)GlcNAc
# In short: as §1
# [22] = biological target: Fuc(a1-2)Gal(b1-4)GlcNAc(b1-3)GalNAc
# In short: as §1
# [23] = biological target: Fuc(a1-2)Gal(b1-4)GlcNAc(b1-3)[Fuc(a1-2)Gal(b1-4)GlcNAc(b1-6)]GalNAc
# In short: as §1
# [24] = biological target: Fuc(a1-2)Gal(b1-4)GlcNAc6S
# In short: as §1
binder,measurement,setting,value
B1,glycan array binding signal (z-score),Fuc(a1-2)Gal,-0.701
same,glycan array binding signal (z-score),Fuc(a1-2)Gal(b1-3)GalNAc,-0.055
same,glycan array binding signal (z-score),[1],-0.849
same,glycan array binding signal (z-score),[2],-0.179
same,glycan array binding signal (z-score),[3],0.099
same,glycan array binding signal (z-score),[4],0.113
same,glycan array binding signal (z-score),[5],0.035
same,glycan array binding signal (z-score),Fuc(a1-2)Gal(b1-3)GlcNAc,-0.579
same,glycan array binding signal (z-score),[6],2.12
same,glycan array binding signal (z-score),[7],-0.158
same,glycan array binding signal (z-score),[8],-0.616
same,glycan array binding signal (z-score),[9],-1.15
same,glycan array binding signal (z-score),[10],1.82
same,glycan array binding signal (z-score),[11],-0.84
same,glycan array binding signal (z-score),[12],-0.347
same,glycan array binding signal (z-score),[13],-0.358
same,glycan array binding signal (z-score),[14],3.68
same,glycan array binding signal (z-score),[15],-1.32
same,glycan array binding signal (z-score),[16],-0.784
same,glycan array binding signal (z-score),Fuc(a1-2)Gal(b1-4)Glc,0.462
same,glycan array binding signal (z-score),Fuc(a1-2)Gal(b1-4)Glc6S,0.64
same,glycan array binding signal (z-score),Fuc(a1-2)Gal(b1-4)GlcNAc,0.888
same,glycan array binding signal (z-score),[17],1.05
same,glycan array binding signal (z-score),[18],0.22
same,glycan array binding signal (z-score),[19],0.188
same,glycan array binding signal (z-score),[20],-0.276
same,glycan array binding signal (z-score),[21],-0.229
same,glycan array binding signal (z-score),[22],0.183
same,glycan array binding signal (z-score),[23],2.31
same,glycan array binding signal (z-score),[24],-0.083

# Fetched one by one from above, two records:
binder,measurement,setting,value
B1,glycan array binding signal (z-score),[14],3.68
same,glycan array binding signal (z-score),[15],-1.32

# Source: the supplement of paper PMC8728848
